# Measurements published in PubChem BioAssay AID938 (National Center for Advancing Translational Sciences (NCATS), 2007).
# Among all 73,000 compounds or so, about 1,800 (2.5%) were called active. Inconclusive results (about 13%) are left out. Only a part is listed here, and it is no random draw. Entries without a call were filed so in the source.
# Test: qHTS Assay for Agonists of the Thyroid Stimulating Hormone Receptor: Activators of Intracellular cAMP Concentrations in Parental HEK 293; also: % of control where 0% means no effect; nearly all actives have a fitted effect of over 55% in size
# Details: parental HEK293 CNG cAMP sensor, membrane potential fluorescence; at 57.1 µM (top of the series; calls follow the shape of the full dose curve)
# Source text: NIH Chemical Genomics Center [NCGC]
# NIH Molecular Libraries Screening Centers Network [MLSCN]
# PI Name: Dr. Marvin Gershengorn
# This cell based assay utilized a cyclic nucleotide gated ion channel (CNG) as a biosensor for cAMP induction. HEK 293 cells stably expressing the modified CNG were purchased from BD biosciences (http://www.atto.com/products/actone/features_benefits.shtml) . Stimulation of cAMP production causes the CNG to open and subsequent membrane depolarization to occur. A fluorescent membrane potential dye (BD biosciences) was utilized to detect cAMP stimulation in cells.
# The cells were maintained in DMEM medium (Invitrogen) containing 10 % FBS (Hyclone), 100 units/ml Penicillin, 100 ug/ml Streptomycin (Invitrogen), and 250 ug/ml Geneticin (Invitrogen) and 1 ug/ml Puromycin (Invitrogen) at 37C in 5% CO2. […]
# High Throughput Screening. […] 23 nl/well compound or control was then added to the assay plates, which were incubated for additional 30 min before reading a Envision fluorescence plate reader (Perkin Elmer) in bottom-read mode for fluorescence intensity (emission at 590 nm).
# Keywords: cAMP, CNG Ion Channel, quantitative high throughput screening, qHTS, HTS, probe identification, CNG, cAMP, cyclic nucleotide gated ion channel PubChem
row,Structure (SMILES),activation
1,COc1cc2c(cc1OC)C(C(=O)N1CCC3(CC1)OCCO3)C(c1ccccc1F)N(C)C2=O (stereo unspecified),108%
